# Hit rate of the full screen: of about 190,000 compounds, about 270 (0.14%) were called active. Listed are the inconclusive results; actives and inactives stand elsewhere.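 The calls were made as follows: active = GTP binding activity at least 20% away from the 100% baseline, either lowered as inhibitor or raised as activator; inconclusive = flagged as likely green fluorescent, judged across all proteins in the well; inactive = the rest.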
# Sequences of proteins named here, by UniProt entry; tags and fusion partners are left off.
# UniProt P01112, whole entry: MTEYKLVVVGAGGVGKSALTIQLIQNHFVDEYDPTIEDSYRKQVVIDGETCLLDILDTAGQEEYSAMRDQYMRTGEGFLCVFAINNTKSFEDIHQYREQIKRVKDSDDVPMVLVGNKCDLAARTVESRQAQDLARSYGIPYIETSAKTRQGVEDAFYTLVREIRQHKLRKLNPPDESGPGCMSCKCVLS
# Molecular target: GTPase HRas (Homo sapiens) (UniProt P01112)
# Test: modulators of GTP binding to HRas wildtype, primary screen, biochemical, bead-based flow cytometry, multiplex (AID 759);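 also: 0% = unlabeled GTP competition control and 100% = no-compound control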
# Conditions: GST-Ras wt beads, Bodipy-FL-GTP binding, at 10 µM, actives lie on both sides
row,SMILES,GTP binding activity
1,CCC(CO)(C(=O)OC1CN2CCC1CC2)c1ccccc1 (stereo unspecified),inconclusive: 92%

# Reference: PubChem BioAssay AID759 (NMMLSC, 2007)
